Common to all, as to assay type: cell-based
One experiment has as its system A549 (human lung cancer). Nature of the experiment: MTT cytotoxicity assay, A549. The note with it: read-out: IC50 A549, 72 h continuous treatment. In general terms: Tetrazolium dyes change colour on reduction, which living cells bring about.
Experiment [1] has as its system HeLa (human cervical cancer). Description: MTT cytotoxicity assay, HeLa. Particulars: read-out: IC50 HeLa, 72 h continuous treatment.
Experiment [2] concerns MCF-7 (human breast cancer). Nature of the experiment: MTT cytotoxicity assay, MCF-7. Particulars: read-out: IC50 MCF-7, 72 h continuous treatment.

Broadly, the IC50 is the concentration that inhibits the measured activity by half.

As to `N.N.[Cl][Pt][Cl]` [cisplatin, cis-diamminedichloroplatinum(II)], the IC50 with A549 (human lung cancer) is 3.2 ± 0.6 µM; in experiment [1], 2.1 ± 0.1 µM; in experiment [2] it was 14 ± 3 µM.

The values above are taken from publication PMC3375352 (Journal of Medicinal Chemistry, 2012).
